Experimental data taken from patent US10197556B2, “Methods to detect non-genotoxic carcinogens using flatworms” (Universiteit Gent, priority 2015, dated 2019).
Structures can show the parent of a compound that is named as a salt.

System: Schmidtea mediterranea
Procedure: Asexual strains of the freshwater planarian Schmidtea mediterranea (38, 45) were maintained in culture medium, consisting of water, that was first deionized and then distilled, and to which the following nutrients were added: 1.6 mM NaCl, 1.0 mM CaCl2, 1.0 mM MgSO4, 0.1 mM MgCl2, 0.1 mM KCl and 1.2 mM NaHCO3. The animals were continuously kept in the dark at a room temperature of 20° C. and were fed once a week with veal liver. […]
In each experimental condition, animals were cut transversally immediately before exposure to a genotoxic, non-genotoxic or non-carcinogen concentration, medium (control) or medium with DMSO (vehicle control). […] Stem cell proliferation was measured after one day of regeneration (the mitotic minimum of regeneration), after three days (the mitotic maximum of regeneration), after one week (the end stage of regeneration) after two and six weeks (during homeostasis), as well as at the appearance of organismal phenotypes (15, 46, 47). Phenotypic effects were monitored daily with a stereo microscope.
An in vivo study allows the investigation of the entire organism's response to carcinogenic compounds and, as such, makes it possible to link carcinogen-induced stem cell proliferation with the organism's phenotype. […] Stem cell proliferation was quantified at the appearance of systemic effects (category 2 concentrations).

Compound: CN(C)CCN(Cc1cccs1)c1ccccn1 [MPH, methapyrilene hydrochloride]
- Cat. 3 concentrations: Mortality (MPH, exposure two weeks): 500 µM
- Cat. 1 concentrations: No effects on phenotype (asexual strain, Schmidtea mediterranea, in vivo, 2 weeks): 10 µM
